Experimental data reported in PMC12172431.
No constants are given. Whether binding was seen depends on the method and setting. Binding seen in cells or lysates may run through a third protein. These calls come from enrichment with a bait or labelling near it, and not all partners need be listed. For some of these results: Where a sequence is shown, tags or fusion partners need not be part of it.

Chains of the proteins cited; added tags and fusions are not shown.
UniProt P16709: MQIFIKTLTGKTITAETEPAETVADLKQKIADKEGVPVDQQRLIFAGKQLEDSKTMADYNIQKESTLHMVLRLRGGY

Tests used:
Ac51 (AcMNPV) = target: T1, Ac51 (AcMNPV) (UniProt P41455); assay: affinity purification with mass spectrometry; Sf9 cells infected with vAcWT (MOI 5), collected at 48 h p.i.; IP with anti-Ac51 antibody, IgG as control; LC-MS/MS
T1 sequence: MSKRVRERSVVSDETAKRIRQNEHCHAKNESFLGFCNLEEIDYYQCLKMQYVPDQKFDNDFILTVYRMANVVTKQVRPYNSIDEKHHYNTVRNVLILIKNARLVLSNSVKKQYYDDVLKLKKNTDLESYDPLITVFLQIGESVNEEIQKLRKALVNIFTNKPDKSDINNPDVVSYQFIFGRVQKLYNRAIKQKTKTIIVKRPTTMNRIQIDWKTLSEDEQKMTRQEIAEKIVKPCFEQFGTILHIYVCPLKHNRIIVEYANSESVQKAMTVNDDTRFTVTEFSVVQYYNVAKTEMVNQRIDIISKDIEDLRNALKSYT

[1] = target: T2, Flag-tagged Ac66 (AcMNPV) (UniProt P41467); assay: affinity purification with mass spectrometry; Sf9 cells infected with vAcWT^Ac66Flag (MOI 5), collected at 48 h p.i.; IP with anti-Flag antibody, IgG as control; LC-MS/MS
T2 sequence: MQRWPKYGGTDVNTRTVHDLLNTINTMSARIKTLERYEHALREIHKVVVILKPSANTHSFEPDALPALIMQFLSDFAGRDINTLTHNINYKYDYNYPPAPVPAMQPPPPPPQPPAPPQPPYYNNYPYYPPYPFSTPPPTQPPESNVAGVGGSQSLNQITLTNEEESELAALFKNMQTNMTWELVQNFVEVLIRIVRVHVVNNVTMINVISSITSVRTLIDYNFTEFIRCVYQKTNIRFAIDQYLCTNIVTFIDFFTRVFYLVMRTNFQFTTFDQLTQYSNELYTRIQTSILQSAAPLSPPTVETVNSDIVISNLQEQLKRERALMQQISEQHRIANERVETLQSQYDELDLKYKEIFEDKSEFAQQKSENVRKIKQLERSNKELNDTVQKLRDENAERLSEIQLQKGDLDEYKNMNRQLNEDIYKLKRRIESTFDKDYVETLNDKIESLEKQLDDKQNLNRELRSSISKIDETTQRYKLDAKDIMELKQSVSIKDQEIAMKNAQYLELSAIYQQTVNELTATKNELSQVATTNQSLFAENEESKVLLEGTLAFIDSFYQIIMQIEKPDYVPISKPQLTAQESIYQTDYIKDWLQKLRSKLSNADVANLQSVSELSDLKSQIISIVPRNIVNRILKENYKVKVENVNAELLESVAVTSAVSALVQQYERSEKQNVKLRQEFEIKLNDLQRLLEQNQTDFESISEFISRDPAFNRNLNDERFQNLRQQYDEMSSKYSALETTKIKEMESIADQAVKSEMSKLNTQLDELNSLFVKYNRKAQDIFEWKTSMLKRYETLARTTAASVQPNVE

Row | Substance | binding (Ac51 (AcMNPV)) | binding [1]
1 | Viral capsid-associated protein (AcMNPV) | binds | –
2 | Orf-79 peptide (AcMNPV) | binds | –
3 | Orf-120 (AcMNPV) | binds | –
4 | host myosin | – | binds
5 | V-ubi (ORF 3) (from UniProt P16709 1-77) | – | binds
6 | Copia-like envelope protein (AcMNPV) | binds | –
7 | AcOrf-93 (AcMNPV) | binds | –
8 | pcna (AcMNPV) | binds | –
9 | Early 49 Daa protein (AcMNPV) | – | binds
10 | host actin | – | binds
